Test [1] concerns the target T1, 3xF-tagged CLSY3 (Arabidopsis) (UniProt F4I8S3).
T1 sequence: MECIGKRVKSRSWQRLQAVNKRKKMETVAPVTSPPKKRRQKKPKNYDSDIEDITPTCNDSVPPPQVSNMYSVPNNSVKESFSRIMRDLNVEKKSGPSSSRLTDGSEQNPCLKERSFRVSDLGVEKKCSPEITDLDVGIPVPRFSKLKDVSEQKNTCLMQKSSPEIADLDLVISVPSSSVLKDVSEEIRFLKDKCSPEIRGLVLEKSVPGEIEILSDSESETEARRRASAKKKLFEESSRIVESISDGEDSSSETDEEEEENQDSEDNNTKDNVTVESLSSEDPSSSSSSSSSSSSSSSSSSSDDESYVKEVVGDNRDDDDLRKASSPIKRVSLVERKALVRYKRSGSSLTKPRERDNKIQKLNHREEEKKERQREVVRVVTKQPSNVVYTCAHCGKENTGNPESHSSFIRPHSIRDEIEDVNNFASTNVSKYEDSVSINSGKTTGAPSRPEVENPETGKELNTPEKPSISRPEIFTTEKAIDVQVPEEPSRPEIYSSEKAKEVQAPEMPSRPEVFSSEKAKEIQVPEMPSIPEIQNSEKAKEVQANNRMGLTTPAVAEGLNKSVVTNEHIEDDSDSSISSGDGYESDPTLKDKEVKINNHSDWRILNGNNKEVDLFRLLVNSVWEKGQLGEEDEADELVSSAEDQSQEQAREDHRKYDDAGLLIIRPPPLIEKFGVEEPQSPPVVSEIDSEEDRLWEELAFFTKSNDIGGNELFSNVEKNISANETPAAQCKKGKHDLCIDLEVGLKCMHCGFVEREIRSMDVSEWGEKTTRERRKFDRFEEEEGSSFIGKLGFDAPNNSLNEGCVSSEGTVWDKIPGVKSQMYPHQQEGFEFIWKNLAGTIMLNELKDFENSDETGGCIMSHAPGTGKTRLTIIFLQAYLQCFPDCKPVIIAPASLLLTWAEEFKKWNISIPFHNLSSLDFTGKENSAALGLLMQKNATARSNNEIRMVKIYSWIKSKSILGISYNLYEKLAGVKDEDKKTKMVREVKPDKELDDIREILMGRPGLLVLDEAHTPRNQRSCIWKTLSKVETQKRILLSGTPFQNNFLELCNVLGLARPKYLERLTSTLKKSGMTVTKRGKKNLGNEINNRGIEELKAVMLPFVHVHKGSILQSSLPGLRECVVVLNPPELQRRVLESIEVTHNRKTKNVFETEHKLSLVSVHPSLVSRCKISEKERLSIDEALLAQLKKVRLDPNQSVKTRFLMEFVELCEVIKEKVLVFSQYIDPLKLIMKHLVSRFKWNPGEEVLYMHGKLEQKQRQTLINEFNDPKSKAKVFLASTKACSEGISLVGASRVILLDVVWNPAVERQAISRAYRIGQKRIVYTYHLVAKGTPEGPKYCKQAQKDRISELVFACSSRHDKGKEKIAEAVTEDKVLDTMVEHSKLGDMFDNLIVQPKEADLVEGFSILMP
Put plainly: affinity purification with mass spectrometry; anti-Flag M2 magnetic beads on 10 g flowers of 3xF-tagged CLSY lines in their clsy mutant backgrounds; elution with 3x-FLAG peptide; compared to non-transgenic wild-type controls.

Amino acid sequences for entries named in this document (tags omitted).
UniProt Q9LQ02: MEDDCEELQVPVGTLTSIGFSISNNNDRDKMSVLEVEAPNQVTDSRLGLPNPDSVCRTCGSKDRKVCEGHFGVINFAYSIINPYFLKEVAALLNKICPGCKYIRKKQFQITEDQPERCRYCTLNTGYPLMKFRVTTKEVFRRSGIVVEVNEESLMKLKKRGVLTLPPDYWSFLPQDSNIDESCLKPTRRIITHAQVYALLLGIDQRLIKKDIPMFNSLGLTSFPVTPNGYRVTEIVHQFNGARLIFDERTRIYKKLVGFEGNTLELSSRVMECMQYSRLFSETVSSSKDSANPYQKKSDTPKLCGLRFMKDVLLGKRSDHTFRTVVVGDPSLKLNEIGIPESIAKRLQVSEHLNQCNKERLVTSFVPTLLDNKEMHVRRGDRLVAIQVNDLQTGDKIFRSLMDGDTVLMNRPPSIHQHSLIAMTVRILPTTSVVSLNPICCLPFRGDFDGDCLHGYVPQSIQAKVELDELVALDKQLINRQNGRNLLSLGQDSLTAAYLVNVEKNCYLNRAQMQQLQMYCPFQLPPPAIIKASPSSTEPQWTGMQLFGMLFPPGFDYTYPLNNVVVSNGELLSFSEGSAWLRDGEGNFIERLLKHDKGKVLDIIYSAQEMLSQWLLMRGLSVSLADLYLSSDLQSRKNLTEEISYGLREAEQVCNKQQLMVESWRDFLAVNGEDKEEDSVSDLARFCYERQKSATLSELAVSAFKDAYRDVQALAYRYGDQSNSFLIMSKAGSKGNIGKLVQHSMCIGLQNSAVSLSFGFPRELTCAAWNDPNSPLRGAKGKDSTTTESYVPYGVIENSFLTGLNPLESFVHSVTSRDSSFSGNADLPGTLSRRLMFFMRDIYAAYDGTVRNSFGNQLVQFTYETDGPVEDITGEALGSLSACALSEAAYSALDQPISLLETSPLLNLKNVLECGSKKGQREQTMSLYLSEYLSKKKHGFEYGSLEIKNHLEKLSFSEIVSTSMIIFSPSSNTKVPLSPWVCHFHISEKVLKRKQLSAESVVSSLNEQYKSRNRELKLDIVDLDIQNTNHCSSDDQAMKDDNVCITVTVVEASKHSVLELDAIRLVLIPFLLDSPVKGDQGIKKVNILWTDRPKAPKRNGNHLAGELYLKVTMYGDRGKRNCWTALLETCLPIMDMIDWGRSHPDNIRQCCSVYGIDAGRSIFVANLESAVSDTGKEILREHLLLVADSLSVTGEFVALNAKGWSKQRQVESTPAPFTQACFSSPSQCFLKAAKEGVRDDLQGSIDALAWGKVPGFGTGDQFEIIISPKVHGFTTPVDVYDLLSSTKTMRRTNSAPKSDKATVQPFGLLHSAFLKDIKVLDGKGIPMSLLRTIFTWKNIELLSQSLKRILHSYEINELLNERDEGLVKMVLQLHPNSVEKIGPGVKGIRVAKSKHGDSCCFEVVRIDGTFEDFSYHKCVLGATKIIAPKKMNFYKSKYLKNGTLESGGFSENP

For test [2], the target named is NRPD1-3xFWT (Arabidopsis) (UniProt Q9LQ02). Put plainly: affinity purification with mass spectrometry; anti-FLAG magnetic beads (uMACS DYKDDDK kit) on flower extracts of nrpd1-3 T2 lines with NRPD1-3xF WT, AAA-YPMF or CYC-AAAA; three lines, two replicates each; LC-MS/MS spectral counts.
The target in the next test is T2, 3xHA-CLSY1 (Arabidopsis) (UniProt Q9M297).
T2 sequence: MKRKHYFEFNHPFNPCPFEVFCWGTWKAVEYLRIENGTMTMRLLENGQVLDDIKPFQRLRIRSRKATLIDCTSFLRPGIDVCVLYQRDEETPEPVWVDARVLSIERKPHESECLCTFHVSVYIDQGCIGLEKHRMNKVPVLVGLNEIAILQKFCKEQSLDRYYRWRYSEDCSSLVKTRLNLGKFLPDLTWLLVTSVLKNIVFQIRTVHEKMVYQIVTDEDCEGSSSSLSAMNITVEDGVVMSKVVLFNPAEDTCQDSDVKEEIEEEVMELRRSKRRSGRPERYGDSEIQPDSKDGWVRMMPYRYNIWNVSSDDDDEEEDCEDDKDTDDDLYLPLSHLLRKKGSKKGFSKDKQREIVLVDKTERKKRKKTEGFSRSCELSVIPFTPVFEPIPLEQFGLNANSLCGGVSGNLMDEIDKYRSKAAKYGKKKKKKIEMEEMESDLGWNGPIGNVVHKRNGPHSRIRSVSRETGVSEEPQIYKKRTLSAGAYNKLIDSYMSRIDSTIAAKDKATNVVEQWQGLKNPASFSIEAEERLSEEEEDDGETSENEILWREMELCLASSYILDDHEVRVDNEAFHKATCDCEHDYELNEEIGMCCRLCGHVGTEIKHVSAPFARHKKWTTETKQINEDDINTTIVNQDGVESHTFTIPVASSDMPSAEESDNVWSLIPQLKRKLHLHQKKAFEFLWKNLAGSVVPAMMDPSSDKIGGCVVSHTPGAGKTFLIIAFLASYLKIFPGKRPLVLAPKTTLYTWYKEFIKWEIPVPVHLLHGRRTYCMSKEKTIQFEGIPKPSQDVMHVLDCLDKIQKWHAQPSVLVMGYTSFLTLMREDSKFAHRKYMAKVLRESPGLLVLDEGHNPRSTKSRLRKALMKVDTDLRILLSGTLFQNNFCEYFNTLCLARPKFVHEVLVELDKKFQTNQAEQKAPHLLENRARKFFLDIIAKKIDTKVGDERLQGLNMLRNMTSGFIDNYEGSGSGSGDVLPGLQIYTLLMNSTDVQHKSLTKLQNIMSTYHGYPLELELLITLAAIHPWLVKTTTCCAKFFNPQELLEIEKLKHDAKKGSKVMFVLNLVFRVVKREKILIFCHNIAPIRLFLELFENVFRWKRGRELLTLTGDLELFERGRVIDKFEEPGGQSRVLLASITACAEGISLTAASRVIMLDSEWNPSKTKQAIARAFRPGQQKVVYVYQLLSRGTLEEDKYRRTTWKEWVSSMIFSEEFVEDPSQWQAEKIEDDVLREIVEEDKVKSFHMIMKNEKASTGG
Nature of the test: affinity purification with mass spectrometry; anti-HA IP (uMACS HA kit) of 3xHA-CLSY1 from flowers of nrpd1-3 lines with NRPD1-3xF WT or AAA-YPMF; LC-MS/MS.

Three molecules from article PMC11603163 can be followed below.

No constants are given. Whether binding was seen depends on the method and setting. In cells and extracts the contact can be indirect. A yes stands for co-enrichment or nearness to the bait. Other partners may have been found. For some assays here: No binding means not detected with the bait. For some assays here: Tags and fused reporters may be left off the sequences shown.

As for “RNA-… RNA POLYMERASE 2 (RDR2) (from UniProt O82504 1-1133)”, the binding result in test [1] and in test [2] was “binds” in each case.

B1: SAWADEE HOMEODOMAIN HOMOLOG 1 (SHH1) (protein, UniProt Q9XI47 1-258)
chain: MAASDDSSHYFTEFTLSEIVDMENLYKELGDQSLHKDFCQTVASTFSCSVNRNGKSSITWKQVQIWFQEKLKHQSQPKSKTLPSPPLQIHDLSNPSSYASNASNATFVGNSTFVQTRKGKASDLADLAFEAKSARDYAWYDVSSFLTYRVLRTGELEVRVRFSGFDNRHDEWVNVKTSVRERSIPVEPSECGRVNVGDLLLCFQEREDQALYCDGHVLNIKRGIHDHARCNCVFLVRYELDNTEESLGLERICRRPEE
As for B1, the binding entry with 3xHA-CLSY1 (Arabidopsis) is “binds”; in test [1], “no binding”; in test [2] it was “binds”.

B2: CLASSY 2 (CLSY2) (protein, UniProt F4K493 1-1261)
chain: MKKRGFYNLKHPFDPCPFEFFCSGTWKPVEYMRIEDGMMTIRLLENGYVLEDIRPFQRLRLRSRKAALSDCICFLRPDIDVCVLYRIHEDDLEPVWVDARIVSIERKPHESECSCKINVRIYIDQGCIGSEKQRINRDSVVIGLNQISILQKFYKEQSTDQFYRWRFSEDCTSLMKTRLSLGKFLPDLSWLTVTSTLKSIVFQIRTVQTKMVYQIVTDEEGSSSTLSSMNITLEDGVSLSKVVKFNPADILDDSQDLEIKQETDYYQEEDEVVELRRSKRRNVRPDIYTGCDYEPDTIDGWVRMMPYQFGKCAVNVESDEDEDDNNEDGDTNDDLYIPLSRLFIKKKKTNSREAKPKSRKGEIVVIDKRRVHGFGRKERKSELSVIPFTPVFEPIPLEQFGLNANSFGGGGSFSRSQYFDETEKYRSKGMKYGKKMTEMEEMMEADLCWKGPNQVKSFQKRTSRSSRSVAPKTEDSDEPRVYKKVTLSAGAYNKLIDTYMNNIESTIAAKDEPTSVVDQWEELKKTNFAFKLHGDMEKNLSEDGEGETSENEMLWREMELCLASSYILDDNEVRVDNEAFEKARSGCEHDYRLEEEIGMCCRLCGHVGSEIKDVSAPFAEHKKWTIETKHIEEDDIKTKLSHKEAQTKDFSMISDSSEMLAAEESDNVWALIPKLKRKLHVHQRRAFEFLWRNVAGSVEPSLMDPTSGNIGGCVISHSPGAGKTFLIIAFLTSYLKLFPGKRPLVLAPKTTLYTWYKEFIKWEIPVPVHLIHGRRTYCTFKQNKTVQFNGVPKPSRDVMHVLDCLEKIQKWHAHPSVLVMGYTSFTTLMREDSKFAHRKYMAKVLRESPGLLVLDEGHNPRSTKSRLRKALMKVGTDLRILLSGTLFQNNFCEYFNTLCLARPKFIHEVLMELDQKFKTNHGVNKAPHLLENRARKLFLDIIAKKIDASVGDERLQGLNMLKNMTNGFIDNYEGSGSGSGDALPGLQIYTLVMNSTDIQHKILTKLQDVIKTYFGYPLEVELQITLAAIHPWLVTSSNCCTKFFNPQELSEIGKLKHDAKKGSKVMFVLNLIFRVVKREKILIFCHNIAPIRMFTELFENIFRWQRGREILTLTGDLELFERGRVIDKFEEPGNPSRVLLASITACAEGISLTAASRVIMLDSEWNPSKTKQAIARAFRPGQQKVVYVYQLLSRGTLEEDKYRRTTWKEWVSCMIFSEEFVADPSLWQAEKIEDDILREIVGEDKVKSFHMIMKNEKASTG
With B2, the binding result is “no binding” with 3xHA-CLSY1 (Arabidopsis), “no binding” in test [1] and “binds” in test [2].
